PubChem BioAssay AID1347423 (Functional Genomics Laboratory (NCATS/FGL), 2020)
The campaign covered roughly 52,000 sequences. About 210 (0.4%) were called active.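 The calls were made as follows: active = gene whose silencing raises cell survival under the drug, median off-target-corrected z-score across its silencing RNAs 2 or more; inactive = the rest.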 Some of the results follow.

Assay: Resistance to Poly (ADP-Ribose) Polymerase inhibitor: Gene Identification via Genome-wide siRNA Screen
Conditions: mouse BRCA2 R2336H ES cells, olaparib, CellTiter-Glo viability; active compounds read high
How it was run: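 Mouse BRCA2 R2336H ES cells were reverse-transfected with siRNA (20 nM final), treated at 48 h with 500 nM olaparib, and read by CellTiter-Glo after 72 h. Scores: MAD-based z per siRNA, median per gene, seed off-target correction.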

Sequence | z-score
GCAAGUUUAGUGAAUUGUGTT against Ddx58 | inactive: 1.68
GGGCUAUCGACUCAACAGATT against Kif23 | inactive: 0.363
GGUGAUUUCAAAUGAAAGCTT against Prps2 | inactive: 0.208
GGACUUAGAAGUCUGCUAATT against Iqcb1 | inactive: -0.296
GCCUUAGAGCACAUUCAGATT against 1200013I08Rik | inactive: 0.0327
GGAUUUGAUCCGAUACCUGTT against Timeless | inactive: -0.483
GCAAGUCCUAAUAUUGUGATT against Rab5a | inactive: 2.74
GCCCUUACUUAGGUCUAGGTT against Kctd12 | inactive: -1.18
GGCCAUGGUUUCAAAAACATT against 2610028F08Rik | inactive: 0.903
GGAUCACACCAUCAAAAAGTT against Copb1 | inactive: -3.48
GGGAAUUGGCUAUCACAGATT against 1300010M03Rik | inactive: -1.55
GGUGAGAACUCAAGAGACUTT against Scp2 | inactive: 0.104
GGAACUUCUGGAAUCCCUCTT against Klra5 | inactive: -0.0821
CGAUUCUUUAGGAACUUUGTT against Pak7 | inactive: -0.0698
GGCUUACCUAAUCAAUUGUTT against Laptm4a | inactive: -0.0726
GGCGAUAAGGAACAGAAGUTT against Ppp3r1 | inactive: 1.57
GGAAUCUGUUGAACAUAUCTT against Csnb | inactive: -0.795
GCUUGAUUAUUGUGUGUCCTT against Olfr786 | inactive: 0.14
AUGGUAUACUAUUAUGCUGTT against MGC107671 | inactive: 0.93
GGUUGUAUUAUCUUCGGAATT against Psmb8 | inactive: 0.178
GCGCAAGGAAGAUGCCCAUTT against Dub1a | inactive: 0.381
CCCUUUCUAGAAAGUCAGUTT against 4930513F16Rik | inactive: -1.08
GGAAGUAUGAAAUUAUCAGTT against Car12 | inactive: 1.44

Sequence | z-score
CCUCAUCACUCAUAGCAGATT against Gfi1 | inactive: -1.33
GGCAUUGAAGGAAGUGAUCTT against 1810042K04Rik | inactive: 0.123
GGACCUUUCUCAACUACUATT against 9530090G24Rik | inactive: -0.829
GGCGUAAACAUGGUGUGCATT against A130052D22 | inactive: -2.48
GCAAAAUAGCCAGUUAAUGTT against Strn | inactive: 0.661
GGAAACCUUUUACCUUUAATT against Padi1 | inactive: 0.0441
CGGGUAUGCCUUAUGUUGATT against Etnk2 | inactive: 0.272
UCUCCAUAUCCUAUGGAAGTT against Olfr813 | inactive: 1.36
GCACGUACGAAGCAAGUAATT against Gm14 | inactive: -1.22
GGGAUCAGGCCAUUUCCAUTT against Vav2 | inactive: -0.697
GGUUUUGCUCUCUAUUUGUTT against Ube2e3 | inactive: -0.131
GGUGUCAGAAAUUUCCAUATT against 9030221M09Rik | inactive: 0.485
GGCUCUCACACUCAAGUAUTT against Srpr | inactive: 1.02
GGGUACCUGUGGUUUUUGUTT against Cecr5 | inactive: 0.104
GGGUUCAUUUCUCACCUCCTT against Bcl7b | inactive: -0.914
GGAAAUGACACUUAUUGAATT against Ndst4 | inactive: 1.01
CCGUCGUGGAGCCAUUAAATT against Prkcd | inactive: -0.609
GGAAGGGCAUCCACUUUGATT against 1110007H17Rik | inactive: -1.01
CCUUCACUCUGUAAGGUGCTT against 1110007C09Rik | inactive: -1.14
GCCCUCACAGCCAGAAUUGTT against 4632424B03Rik | inactive: 1.06
GGACACUUGAUAAAUCUUCTT against Lace1 | inactive: 1.09
GGGCAAAGUGAUUGGCAUATT against Amid | inactive: 0.2
GGCAGCUGAAGAUUAUGGATT against Tagln | inactive: 2.21

13 entries from above, set out differently:
Sequence	z-score
CCUCAUCACUCAUAGCAGATT against Gfi1	inactive: -1.33
GGCAUUGAAGGAAGUGAUCTT against 1810042K04Rik	inactive: 0.123
GGACCUUUCUCAACUACUATT against 9530090G24Rik	inactive: -0.829
GGCGUAAACAUGGUGUGCATT against A130052D22	inactive: -2.48
GCAAAAUAGCCAGUUAAUGTT against Strn	inactive: 0.661
GGAAACCUUUUACCUUUAATT against Padi1	inactive: 0.0441
CGGGUAUGCCUUAUGUUGATT against Etnk2	inactive: 0.272
UCUCCAUAUCCUAUGGAAGTT against Olfr813	inactive: 1.36
GCACGUACGAAGCAAGUAATT against Gm14	inactive: -1.22
GGGAUCAGGCCAUUUCCAUTT against Vav2	inactive: -0.697
GGUUUUGCUCUCUAUUUGUTT against Ube2e3	inactive: -0.131
GGUGUCAGAAAUUUCCAUATT against 9030221M09Rik	inactive: 0.485
GGCUCUCACACUCAAGUAUTT against Srpr	inactive: 1.02

Later entries:

Sequence | z-score
GGUAUGCUAACAGAACACGTT against Nr1h4 | inactive: 0.175
GGGACAGAUGGUCGAUGAATT against E130308A19Rik | inactive: -1.26
GGACCAGUUAAAGUGGCAGTT against Oas1e | inactive: 0.461
GACUUCAGGCACACAUUGCTT against Cdc42ep5 | inactive: -0.904
GCACCUUUGCAUAUCUAAATT against Olfr115 | inactive: -0.487
GGAAGAGCAAAUAUGAGAATT against Syp | inactive: 0.0265
GCGUGUUCAACACCAACUUTT against Rdh8 | inactive: 0.744
GAACUGGAAUGCCUGAUGGTT against Rslcan24 | inactive: -2.19
UAUCCUAUGGCUUUCCUGGTT against Olfr485 | inactive: 0.238
GGUUCUGCUGUACUCCUUGTT against Wdr8 | inactive: -0.823
GGAGAUAGAGACCCUAGUGTT against Tas2r124 | inactive: -0.827
GGAAAACAACGAAUUGCUCTT against C80913 | inactive: -0.142
GGCAGUUCGUCAGCUUCAUTT against Bhmt | inactive: -1.29
GGAUGCUAUAAAGAAUGCCTT against Prpf39 | inactive: 1.72
GGAAUAUUAUGGGUAUCGATT against Cacna1s | inactive: -0.443
GGCUCCGAGAAAUGCAAUCTT against Mmp13 | inactive: 0.896
GGAGUCACUCACAUUGUGGTT against Poll | inactive: -1.6
CCAUUAUGAUUUAUGCUCCTT against Kcnmb4 | inactive: 0.159
GGUAGUCAUACAGAUAUGUTT against Hey2 | inactive: 1.05
GAGCAUCCGCUACUUGGUATT against Nmnat1 | inactive: -0.726
GGAGGAUGGUGCCAACAUUTT against Psmc3 | inactive: -1.14
